31 targets from the supplement of paper PMC10849652 can be followed below.

Protein sequences, listed by entry. Tags and fused reporters are not part of them. Lines headed by an entry give the natural chain unless they say otherwise; changes in a name come on top.
UniProt Q86YI8: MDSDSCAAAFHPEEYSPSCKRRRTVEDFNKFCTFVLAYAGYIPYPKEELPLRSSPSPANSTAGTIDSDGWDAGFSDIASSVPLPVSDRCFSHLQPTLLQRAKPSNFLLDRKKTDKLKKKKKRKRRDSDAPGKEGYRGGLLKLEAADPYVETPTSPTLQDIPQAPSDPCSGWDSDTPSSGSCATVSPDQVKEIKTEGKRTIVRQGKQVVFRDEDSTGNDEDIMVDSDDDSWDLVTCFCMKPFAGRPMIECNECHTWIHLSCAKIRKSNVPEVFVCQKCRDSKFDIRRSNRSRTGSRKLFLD
UniProt Q9H5I5: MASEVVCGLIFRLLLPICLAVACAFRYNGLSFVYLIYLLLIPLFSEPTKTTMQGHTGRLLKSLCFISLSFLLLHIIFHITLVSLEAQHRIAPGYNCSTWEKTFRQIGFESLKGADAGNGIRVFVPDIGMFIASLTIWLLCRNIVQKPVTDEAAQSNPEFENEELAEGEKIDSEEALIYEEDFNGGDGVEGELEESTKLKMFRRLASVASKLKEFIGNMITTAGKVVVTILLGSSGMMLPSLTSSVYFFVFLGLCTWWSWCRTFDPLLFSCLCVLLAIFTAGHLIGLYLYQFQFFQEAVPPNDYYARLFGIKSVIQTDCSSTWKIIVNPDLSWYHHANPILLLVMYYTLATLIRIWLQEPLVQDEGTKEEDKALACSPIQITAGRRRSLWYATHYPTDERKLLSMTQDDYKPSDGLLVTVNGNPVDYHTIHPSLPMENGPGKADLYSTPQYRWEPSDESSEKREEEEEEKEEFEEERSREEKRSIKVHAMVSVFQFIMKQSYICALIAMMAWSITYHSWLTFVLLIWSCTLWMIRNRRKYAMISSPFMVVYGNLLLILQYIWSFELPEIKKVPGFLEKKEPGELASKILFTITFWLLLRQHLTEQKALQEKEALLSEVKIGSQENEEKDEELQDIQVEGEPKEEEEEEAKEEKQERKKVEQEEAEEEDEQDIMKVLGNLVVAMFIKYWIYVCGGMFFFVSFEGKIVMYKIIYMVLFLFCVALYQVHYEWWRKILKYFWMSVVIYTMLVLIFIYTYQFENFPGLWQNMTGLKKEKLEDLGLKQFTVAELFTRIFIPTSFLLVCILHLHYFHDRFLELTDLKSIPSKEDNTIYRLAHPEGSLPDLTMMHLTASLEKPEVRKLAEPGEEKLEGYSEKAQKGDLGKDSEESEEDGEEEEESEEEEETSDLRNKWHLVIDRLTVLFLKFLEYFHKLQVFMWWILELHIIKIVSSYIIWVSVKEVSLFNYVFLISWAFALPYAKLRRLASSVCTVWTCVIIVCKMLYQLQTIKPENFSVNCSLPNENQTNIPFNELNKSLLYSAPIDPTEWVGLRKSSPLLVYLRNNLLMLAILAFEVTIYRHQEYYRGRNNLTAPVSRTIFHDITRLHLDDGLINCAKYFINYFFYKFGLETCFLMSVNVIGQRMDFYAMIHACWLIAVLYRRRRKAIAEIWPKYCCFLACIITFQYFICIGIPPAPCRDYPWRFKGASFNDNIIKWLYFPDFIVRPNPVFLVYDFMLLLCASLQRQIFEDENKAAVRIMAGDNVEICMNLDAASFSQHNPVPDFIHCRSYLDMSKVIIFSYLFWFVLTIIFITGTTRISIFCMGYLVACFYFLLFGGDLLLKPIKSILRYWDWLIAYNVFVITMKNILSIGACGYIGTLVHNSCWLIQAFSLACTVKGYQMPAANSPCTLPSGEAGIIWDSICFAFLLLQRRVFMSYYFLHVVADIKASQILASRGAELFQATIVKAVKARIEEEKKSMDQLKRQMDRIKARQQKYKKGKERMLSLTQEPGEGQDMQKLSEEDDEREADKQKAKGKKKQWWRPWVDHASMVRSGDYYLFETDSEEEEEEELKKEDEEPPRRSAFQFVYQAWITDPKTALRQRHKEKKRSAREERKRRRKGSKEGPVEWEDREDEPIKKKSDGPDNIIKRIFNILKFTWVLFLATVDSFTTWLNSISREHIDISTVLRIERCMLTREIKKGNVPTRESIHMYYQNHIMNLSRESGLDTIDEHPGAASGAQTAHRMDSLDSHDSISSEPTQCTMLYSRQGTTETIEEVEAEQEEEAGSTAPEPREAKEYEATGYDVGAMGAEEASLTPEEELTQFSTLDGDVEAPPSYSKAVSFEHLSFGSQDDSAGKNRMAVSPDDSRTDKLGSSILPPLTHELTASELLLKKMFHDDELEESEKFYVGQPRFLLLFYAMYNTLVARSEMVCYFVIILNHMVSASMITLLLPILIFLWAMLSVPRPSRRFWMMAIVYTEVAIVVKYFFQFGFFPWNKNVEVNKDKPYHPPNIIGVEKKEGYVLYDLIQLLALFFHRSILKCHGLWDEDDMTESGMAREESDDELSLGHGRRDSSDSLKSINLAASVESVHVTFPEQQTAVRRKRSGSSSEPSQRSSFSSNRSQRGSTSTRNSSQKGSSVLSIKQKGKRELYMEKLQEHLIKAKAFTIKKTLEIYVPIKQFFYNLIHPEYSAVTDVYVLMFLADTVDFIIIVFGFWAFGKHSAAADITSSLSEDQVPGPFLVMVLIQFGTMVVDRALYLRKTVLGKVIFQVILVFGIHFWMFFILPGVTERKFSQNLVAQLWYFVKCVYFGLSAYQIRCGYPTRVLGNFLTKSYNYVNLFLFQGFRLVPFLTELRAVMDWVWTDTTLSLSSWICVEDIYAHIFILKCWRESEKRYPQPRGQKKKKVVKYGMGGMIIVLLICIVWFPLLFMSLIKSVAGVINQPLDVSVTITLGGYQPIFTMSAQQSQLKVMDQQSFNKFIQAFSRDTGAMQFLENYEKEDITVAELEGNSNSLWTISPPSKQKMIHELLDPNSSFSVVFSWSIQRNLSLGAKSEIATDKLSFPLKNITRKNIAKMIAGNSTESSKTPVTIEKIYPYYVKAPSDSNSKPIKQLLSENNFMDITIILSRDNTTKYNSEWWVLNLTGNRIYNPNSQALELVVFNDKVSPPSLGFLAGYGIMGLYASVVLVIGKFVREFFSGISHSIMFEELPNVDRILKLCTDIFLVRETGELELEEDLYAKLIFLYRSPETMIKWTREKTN
UniProt Q99755: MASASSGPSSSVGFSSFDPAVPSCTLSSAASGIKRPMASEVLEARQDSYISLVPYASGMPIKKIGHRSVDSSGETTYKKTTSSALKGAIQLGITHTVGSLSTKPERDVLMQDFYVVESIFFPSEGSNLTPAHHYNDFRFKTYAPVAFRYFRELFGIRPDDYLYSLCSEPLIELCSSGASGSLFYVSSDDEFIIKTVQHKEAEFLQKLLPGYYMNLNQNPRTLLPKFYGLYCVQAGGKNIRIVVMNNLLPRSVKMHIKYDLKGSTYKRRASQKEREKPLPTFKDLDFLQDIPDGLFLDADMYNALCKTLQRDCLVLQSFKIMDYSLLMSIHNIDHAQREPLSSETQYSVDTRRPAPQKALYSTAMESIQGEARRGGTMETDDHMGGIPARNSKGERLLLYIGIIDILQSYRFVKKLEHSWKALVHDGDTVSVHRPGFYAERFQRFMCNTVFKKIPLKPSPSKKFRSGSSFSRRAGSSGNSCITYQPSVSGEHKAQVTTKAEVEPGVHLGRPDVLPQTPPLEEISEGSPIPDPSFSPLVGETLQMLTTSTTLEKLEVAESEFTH
UniProt Q9C010: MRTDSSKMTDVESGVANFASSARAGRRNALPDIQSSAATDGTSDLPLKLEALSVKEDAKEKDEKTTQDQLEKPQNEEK
UniProt Q9HB19: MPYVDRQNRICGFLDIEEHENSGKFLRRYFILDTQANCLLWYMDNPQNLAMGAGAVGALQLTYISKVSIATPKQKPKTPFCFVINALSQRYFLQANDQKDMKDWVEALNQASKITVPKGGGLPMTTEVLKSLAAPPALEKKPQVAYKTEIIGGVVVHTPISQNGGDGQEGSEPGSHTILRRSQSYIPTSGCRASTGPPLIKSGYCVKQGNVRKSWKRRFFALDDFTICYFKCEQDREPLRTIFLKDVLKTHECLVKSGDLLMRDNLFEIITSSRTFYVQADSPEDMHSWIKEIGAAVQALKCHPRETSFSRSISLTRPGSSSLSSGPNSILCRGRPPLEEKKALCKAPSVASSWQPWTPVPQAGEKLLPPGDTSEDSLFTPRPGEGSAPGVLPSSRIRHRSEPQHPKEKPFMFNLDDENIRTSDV
UniProt Q9BSJ6: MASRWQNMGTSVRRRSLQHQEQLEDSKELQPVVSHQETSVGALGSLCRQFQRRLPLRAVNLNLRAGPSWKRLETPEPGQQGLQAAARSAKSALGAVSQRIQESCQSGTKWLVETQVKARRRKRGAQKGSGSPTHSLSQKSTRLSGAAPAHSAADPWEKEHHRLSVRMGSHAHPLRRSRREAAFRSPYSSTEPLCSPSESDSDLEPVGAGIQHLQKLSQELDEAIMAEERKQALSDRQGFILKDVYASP
UniProt Q6ZUJ8: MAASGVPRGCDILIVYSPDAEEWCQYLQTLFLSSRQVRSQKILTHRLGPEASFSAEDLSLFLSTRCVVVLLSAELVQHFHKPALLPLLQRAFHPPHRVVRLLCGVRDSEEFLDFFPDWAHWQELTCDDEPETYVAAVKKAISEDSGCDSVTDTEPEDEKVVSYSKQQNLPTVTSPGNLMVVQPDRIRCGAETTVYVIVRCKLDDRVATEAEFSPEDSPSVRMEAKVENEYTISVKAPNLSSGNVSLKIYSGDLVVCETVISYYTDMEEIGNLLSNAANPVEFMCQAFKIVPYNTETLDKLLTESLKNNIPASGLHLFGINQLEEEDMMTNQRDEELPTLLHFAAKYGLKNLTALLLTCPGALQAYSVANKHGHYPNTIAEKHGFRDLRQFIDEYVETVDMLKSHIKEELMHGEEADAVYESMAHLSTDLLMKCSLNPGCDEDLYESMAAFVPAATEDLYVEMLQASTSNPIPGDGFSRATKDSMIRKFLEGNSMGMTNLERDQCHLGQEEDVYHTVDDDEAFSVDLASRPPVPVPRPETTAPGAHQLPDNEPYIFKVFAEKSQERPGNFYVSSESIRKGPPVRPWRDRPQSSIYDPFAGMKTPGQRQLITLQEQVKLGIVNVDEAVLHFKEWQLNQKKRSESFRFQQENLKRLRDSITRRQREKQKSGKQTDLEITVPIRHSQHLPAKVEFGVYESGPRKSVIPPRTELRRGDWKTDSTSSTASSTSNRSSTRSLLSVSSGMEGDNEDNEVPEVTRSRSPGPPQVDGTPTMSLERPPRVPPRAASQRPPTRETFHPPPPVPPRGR
UniProt Q99569: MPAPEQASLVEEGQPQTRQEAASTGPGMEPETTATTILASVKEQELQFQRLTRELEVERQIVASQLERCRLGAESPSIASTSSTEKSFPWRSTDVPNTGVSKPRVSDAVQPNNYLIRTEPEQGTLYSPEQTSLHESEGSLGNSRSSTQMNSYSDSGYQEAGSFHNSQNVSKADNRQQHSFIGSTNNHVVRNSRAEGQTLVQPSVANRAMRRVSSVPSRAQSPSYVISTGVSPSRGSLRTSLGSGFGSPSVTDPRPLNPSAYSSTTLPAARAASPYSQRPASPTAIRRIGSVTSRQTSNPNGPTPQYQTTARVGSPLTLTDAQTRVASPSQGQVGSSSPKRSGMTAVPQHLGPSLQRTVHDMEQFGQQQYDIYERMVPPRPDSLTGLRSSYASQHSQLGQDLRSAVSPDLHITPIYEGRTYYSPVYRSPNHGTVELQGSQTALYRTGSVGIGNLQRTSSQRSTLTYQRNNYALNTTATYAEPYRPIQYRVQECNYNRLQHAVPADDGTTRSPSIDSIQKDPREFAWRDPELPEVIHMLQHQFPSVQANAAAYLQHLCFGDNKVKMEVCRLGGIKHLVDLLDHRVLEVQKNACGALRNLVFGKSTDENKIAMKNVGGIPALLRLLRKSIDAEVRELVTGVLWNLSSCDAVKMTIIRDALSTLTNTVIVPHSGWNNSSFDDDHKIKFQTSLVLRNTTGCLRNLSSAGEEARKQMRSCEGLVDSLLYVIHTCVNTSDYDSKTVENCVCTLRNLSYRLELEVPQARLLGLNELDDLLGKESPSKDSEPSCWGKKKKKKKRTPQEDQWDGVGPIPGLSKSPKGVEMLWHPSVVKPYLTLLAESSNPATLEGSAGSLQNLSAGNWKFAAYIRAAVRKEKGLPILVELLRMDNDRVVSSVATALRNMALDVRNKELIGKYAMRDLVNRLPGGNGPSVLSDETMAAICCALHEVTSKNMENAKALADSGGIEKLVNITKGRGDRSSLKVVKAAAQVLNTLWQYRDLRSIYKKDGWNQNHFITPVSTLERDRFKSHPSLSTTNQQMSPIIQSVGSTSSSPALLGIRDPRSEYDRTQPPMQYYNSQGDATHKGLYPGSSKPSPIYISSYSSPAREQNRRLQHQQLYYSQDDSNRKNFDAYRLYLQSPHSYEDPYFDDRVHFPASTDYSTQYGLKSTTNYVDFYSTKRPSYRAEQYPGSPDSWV
PIGBOS1, A0A0B4J2F0, UniProt A0A0B4J2F0, whole entry, looked up: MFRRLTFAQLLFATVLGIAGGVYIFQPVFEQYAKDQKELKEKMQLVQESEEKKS

Some of the results follow.

Compound in the first assay: CCCS(=O)(=O)Nc1ccc(F)c(C(=O)c2c[nH]c3ncc(Cl)cc23)c1F
Nature of the assay: log2 fold change, soluble protein after heating vs DMSO (PISA); higher = thermal stabilisation; K562 lysate, 10 uM; active = over 0.2 and 3.5 SD of the protein, either way, in both replicates (recomputed). The method, boiled down:
(§1)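 Values give the log-two fold change in thermal stability against solvent controls, from duplicates. Crude K562 extract at 1 mg/mL protein, made by dounce homogenisation in PBS pH 7.4 with 1 mM MgCl2, was treated with 10 μM compound for 30 min. After 3 min heating across 48°C-58°C, aliquots were pooled, adjusted to 0.5% NP-40 at 4°C and centrifuged at 21,000xg for 90 min. The supernatant was measured by TMTpro 16plex LC-MS/MS with channel sums equalised.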
On to PHF13 (UniProt Q86YI8), for which the log2 fold change is inactive: 0.012.
Take PHGDH, A0A286YFE1: the log2 fold change is inactive: 0.158.
Still for that read-out and setting: as for PIEZO2 isoform 4 (UniProt Q9H5I5), the figure is inactive: 0.08; as for PLAU (UniProt P00749), inactive: -0.416.
With PIGT, A0A1W2PP13, the log2 fold change was inactive: -0.202.
In the case of PIP5K1A (UniProt Q99755), the log2 fold change was inactive: 0.029.
PLCB4 isoform 4 (UniProt Q15147): the log2 fold change is inactive: 0.081.
Consider PKIB isoform 2 (UniProt Q9C010), for which the log2 fold change is inactive: -0.074.

Compound in the next assay: CCN(CCCOc1ccc2c(Nc3cc(CC(=O)Nc4cccc(F)c4)[nH]n3)ncnc2c1)CCOP(=O)(O)O [barasertib]
Described as above. The method, boiled down:
as §1
Take PHF13 (UniProt Q86YI8): the log2 fold change was inactive: 0.019.
Regarding PIP5K1B isoform 2 (UniProt O14986), the log2 fold change is inactive: -0.155.
Same read-out and setting: as for PLEKHA2 (UniProt Q9HB19), the figure is inactive: -0.004.
For the target PHGDH, A0A286YFE1, the log2 fold change is inactive: 0.364.
As to PITPNM1 (UniProt O00562), the log2 fold change was inactive: -0.038.
Still for that read-out and setting: as for PIMREG (UniProt Q9BSJ6), the figure is inactive: 0.172.
As to PIK3AP1 (UniProt Q6ZUJ8), the log2 fold change was inactive: 0.017.
For the target PIP5K1A (UniProt Q99755), the log2 fold change is inactive: 0.108.

Compound in the next assay: CC[C@@H]1C(=O)N(C)c2cnc(Nc3ccc(C(=O)NC4CCN(C)CC4)cc3OC)nc2N1C1CCCC1
The description is as above. An outline of the steps:
as §1
As to PGM1 isoform 2 (UniProt P36871), the log2 fold change is inactive: -0.206.
Turning to PLAUR (UniProt Q03405), the log2 fold change was inactive: 0.137.
For PIEZO2 isoform 4 (UniProt Q9H5I5), the log2 fold change is inactive: 0.08.
As to PLEKHG2 (UniProt Q9H7P9), the log2 fold change was inactive: 0.245.
Same read-out and setting: as for PHOSPHO2 (UniProt C9JD35), the figure is inactive: -0.432; as for PLAU (UniProt P00749), inactive: 0.033.
As for PIK3AP1 (UniProt Q6ZUJ8), the log2 fold change was inactive: 0.095.
On the same count and under the same terms, as for PLEKHA8 (UniProt Q96JA3), the figure is inactive: 0; as for PKP4 (UniProt Q99569), inactive: 0.025; as for PLEK (UniProt P08567), inactive: -0.131.
Turning to PLCB4 isoform 4 (UniProt Q15147), the log2 fold change is inactive: 0.125.

Compound in another assay: CC[C@@H]1C(=O)N(C)c2cnc(Nc3ccc(C(=O)N[C@H]4CC[C@H](N5CCN(CC6CC6)CC5)CC4)cc3OC)nc2N1C(C)C [volasertib]
The description is as above. The method, boiled down:
as §1
As for PHF13 (UniProt Q86YI8), the log2 fold change was inactive: 0.019.
Turning to PHGDH, A0A286YFE1, the log2 fold change is inactive: 0.083.
Still for that read-out and setting: as for PIEZO2 isoform 4 (UniProt Q9H5I5), the figure is inactive: 0.039.
Take PLAU (UniProt P00749): the log2 fold change was inactive: 0.149.
On to PIGT, A0A1W2PP13, for which the log2 fold change was inactive: 0.245.
On to PIP5K1A (UniProt Q99755), for which the log2 fold change was inactive: 0.07.
With PLCB4 isoform 4 (UniProt Q15147), the log2 fold change is inactive: -0.096.
On the same count and under the same terms, as for PKIB isoform 2 (UniProt Q9C010), the figure is inactive: 0.018.

Compound in a further assay: CCn1c(C(=O)N(C2CC2)C2CC2)cc2c3c(ncn3C)c(Nc3cc(C)n(C)n3)nc21
Described as above. An outline of the steps: as §1
On to PHF13 (UniProt Q86YI8), for which the log2 fold change was inactive: -0.163.
Regarding PIK3R3 (UniProt Q92569), the log2 fold change was inactive: 0.111.
Turning to PHF19 (UniProt Q5T6S3), the log2 fold change is inactive: 0.057.
Consider PLEKHA2 (UniProt Q9HB19), for which the log2 fold change is inactive: 0.052.
For the target PHF12 (UniProt Q96QT6), the log2 fold change is inactive: -0.048.
In the case of PIM2 (UniProt Q9P1W9), the log2 fold change is inactive: 0.078.
Still for that read-out and setting: as for PIDD1 (UniProt Q9HB75), the figure is inactive: 0.063; as for PITPNM1 (UniProt O00562), inactive: -0.016; as for PIMREG (UniProt Q9BSJ6), inactive: 0.263.
Turning to PLAU (UniProt P00749), the log2 fold change is inactive: 0.143.
Turning to PHF20 (UniProt Q9BVI0), the log2 fold change was inactive: 0.075.
Same read-out and setting: as for PHF2 (UniProt O75151), the figure is inactive: 0.147.
Regarding PIK3AP1 (UniProt Q6ZUJ8), the log2 fold change was inactive: -0.126.
Take PLEKHA8 (UniProt Q96JA3): the log2 fold change is inactive: -0.124.
On to PIP5K1A (UniProt Q99755), for which the log2 fold change was inactive: -0.041.
Take PKP4 (UniProt Q99569): the log2 fold change is inactive: 0.028.
As for PLEK (UniProt P08567), the log2 fold change is inactive: -0.11.
Take PLCB4 isoform 4 (UniProt Q15147): the log2 fold change is inactive: 0.079.
As to PKIB isoform 2 (UniProt Q9C010), the log2 fold change is inactive: -0.076.
On the same count and under the same terms, as for PLEKHA3 (UniProt Q9HB20), the figure is inactive: 0.066; as for PHETA1 isoform 4 (UniProt Q8N4B1), inactive: -0.055.

Compound in the next assay: CCn1cc(-c2ccnc3[nH]c(-c4cccc(CN(C)C)c4)cc23)c(-c2ccc(NC(=O)N(C)C)cc2)n1
The description is as above. The method, boiled down:
as §1
On to PHF13 (UniProt Q86YI8), for which the log2 fold change was inactive: -0.611.
For PLEKHA2 (UniProt Q9HB19), the log2 fold change was inactive: -0.212.
As for PLAUR (UniProt Q03405), the log2 fold change is inactive: -0.041.
For PIM2 (UniProt Q9P1W9), the log2 fold change is inactive: 0.154.
On to PLEKHG2 (UniProt Q9H7P9), for which the log2 fold change is inactive: 0.059.
Take PIMREG (UniProt Q9BSJ6): the log2 fold change was inactive: 0.105.
For PIAS1 isoform 2 (UniProt O75925), the log2 fold change was inactive: -0.481.
For PIP5K1A (UniProt Q99755), the log2 fold change was inactive: 0.027.
The same measure, in the same setting: as for PKP4 (UniProt Q99569), the figure is inactive: 0.097; as for PKIB isoform 2 (UniProt Q9C010), inactive: -0.112; as for PIGBOS1, A0A0B4J2F0, inactive: 0.125.
As to PLEKHA3 (UniProt Q9HB20), the log2 fold change is inactive: -0.06.
Consider PHETA1 isoform 4 (UniProt Q8N4B1), for which the log2 fold change is inactive: 0.22.
